In PMC10088926, “Synthesis, DFT calculations, and anti-proliferative evaluation of pyrimidine and selenadiazolopyrimidine derivatives as dual Topoisomerase II and HSP90 inhibitors” (Journal of Enzyme Inhibition and Medicinal Chemistry, 2023):
“Also recorded” adds a separate entry of the source.

System: WI-38 (fibroblast-like foetal lung cell line)
Experiment: In vitro cytotoxicity against normal WI-38 cell line
Conditions: fold versus doxorubicin

For `CC1(C)CC(=O)C=C(Nc2c(N)[nH]c(=O)[nH]c2=O)C1` [Compound 3a, 6-Amino-5-((5,5-dimethyl-3-oxocyclohex-1-en-1-yl)amino)pyrimidine-2,4(1H,3H)-dione], the “increase of the inhibitory concentration on normal WI-38 cells relative to doxorubicin” value was “four times; also recorded: four-fold”.
